Construct, isoform or probe ends are uncertain for at least one entry. For some of these results: Weaker means in comparison with the reference protein, sequence or condition of that experiment.
Assays:
[1] = tested on: dCREB2-b isoform lacking alternatively spliced exons 2, 4 and 6 relative to dCREB2-a (Drosophila melanogaster); test: EMSA; settings: purified recombinant protein, label: 32P
[2] = tested on: dCREB2-b isoform lacking alternatively spliced exons 2, 4 and 6 relative to dCREB2-a (Drosophila melanogaster); test: binding assay; settings: DNA-binding expression screen of Drosophila head cDNA library on filters; purified recombinant protein; label: 32P
[3] = tested on: dCREB2-b isoform lacking alternatively spliced exons 2, 4 and 6 relative to dCREB2-a (Drosophila melanogaster); test: competition with a labelled probe; settings: unlabeled nonspecific competitor; higher affinity for CRE than nonspecific DNA; purified recombinant protein

AAATGAATTAACGGAAATGAATTAACGGAAATGAATTAACGG (double strand) [3xmCRE mutant]
binding result ([1]; lower but detectable affinity, variant of 3xCRE wild-type): binds more weakly

AAATGACGTAACGGAAATGACGTAACGGAAATGACGTAACG (double strand) [3xCRE wild-type]
binding result ([1]; 4% gel, Tris-glycine, 3 mM MgCl2): binds

CGTCTAGATCTATGACTGAATATGACGTAATATGACGTAATGGTACCAGATCTGGCC (double strand) [3xCRE screening probe]
binding result [2]: binds

CTAGAGCTTGCAAGCATGCTTGCAAGCAAGCATGCTTGCAAGCATGCTTGCAAGC (double strand) [Nonspecific competitor #3]
binding result [3]: binds more weakly

CTCTAGAGCGTACGCAAGCGTACGCAAGCGTACG (double strand) [Nonspecific competitor #4]
binding result [3]: binds more weakly

TCGACCCACAGTTTCGGGTTTTCGAGCAAGTCTGCTAGTGTCTGATGAGGCCGAAAGGCCGAAACGCGAAGCCGTATTGCACCACGCTCATCGAGAAGGC (double strand) [Nonspecific competitor #2]
binding result [3]: binds more weakly

TGCACGGGTTTTCGACGTTCACTGGTAGTGTCTGATGAGGCCGAAAGGCCGAAACGCGATGCCCATAACCACCACGCTCAG (double strand) [Nonspecific competitor #1]
binding result [3]: binds more weakly
